# Results from article PMC5648251.
# Chains of the proteins cited; added tags and fusions are not shown. Lines headed by an entry give the natural chain unless they say otherwise; changes in a name come on top. Residues count along the entry.
# UniProt Q09472: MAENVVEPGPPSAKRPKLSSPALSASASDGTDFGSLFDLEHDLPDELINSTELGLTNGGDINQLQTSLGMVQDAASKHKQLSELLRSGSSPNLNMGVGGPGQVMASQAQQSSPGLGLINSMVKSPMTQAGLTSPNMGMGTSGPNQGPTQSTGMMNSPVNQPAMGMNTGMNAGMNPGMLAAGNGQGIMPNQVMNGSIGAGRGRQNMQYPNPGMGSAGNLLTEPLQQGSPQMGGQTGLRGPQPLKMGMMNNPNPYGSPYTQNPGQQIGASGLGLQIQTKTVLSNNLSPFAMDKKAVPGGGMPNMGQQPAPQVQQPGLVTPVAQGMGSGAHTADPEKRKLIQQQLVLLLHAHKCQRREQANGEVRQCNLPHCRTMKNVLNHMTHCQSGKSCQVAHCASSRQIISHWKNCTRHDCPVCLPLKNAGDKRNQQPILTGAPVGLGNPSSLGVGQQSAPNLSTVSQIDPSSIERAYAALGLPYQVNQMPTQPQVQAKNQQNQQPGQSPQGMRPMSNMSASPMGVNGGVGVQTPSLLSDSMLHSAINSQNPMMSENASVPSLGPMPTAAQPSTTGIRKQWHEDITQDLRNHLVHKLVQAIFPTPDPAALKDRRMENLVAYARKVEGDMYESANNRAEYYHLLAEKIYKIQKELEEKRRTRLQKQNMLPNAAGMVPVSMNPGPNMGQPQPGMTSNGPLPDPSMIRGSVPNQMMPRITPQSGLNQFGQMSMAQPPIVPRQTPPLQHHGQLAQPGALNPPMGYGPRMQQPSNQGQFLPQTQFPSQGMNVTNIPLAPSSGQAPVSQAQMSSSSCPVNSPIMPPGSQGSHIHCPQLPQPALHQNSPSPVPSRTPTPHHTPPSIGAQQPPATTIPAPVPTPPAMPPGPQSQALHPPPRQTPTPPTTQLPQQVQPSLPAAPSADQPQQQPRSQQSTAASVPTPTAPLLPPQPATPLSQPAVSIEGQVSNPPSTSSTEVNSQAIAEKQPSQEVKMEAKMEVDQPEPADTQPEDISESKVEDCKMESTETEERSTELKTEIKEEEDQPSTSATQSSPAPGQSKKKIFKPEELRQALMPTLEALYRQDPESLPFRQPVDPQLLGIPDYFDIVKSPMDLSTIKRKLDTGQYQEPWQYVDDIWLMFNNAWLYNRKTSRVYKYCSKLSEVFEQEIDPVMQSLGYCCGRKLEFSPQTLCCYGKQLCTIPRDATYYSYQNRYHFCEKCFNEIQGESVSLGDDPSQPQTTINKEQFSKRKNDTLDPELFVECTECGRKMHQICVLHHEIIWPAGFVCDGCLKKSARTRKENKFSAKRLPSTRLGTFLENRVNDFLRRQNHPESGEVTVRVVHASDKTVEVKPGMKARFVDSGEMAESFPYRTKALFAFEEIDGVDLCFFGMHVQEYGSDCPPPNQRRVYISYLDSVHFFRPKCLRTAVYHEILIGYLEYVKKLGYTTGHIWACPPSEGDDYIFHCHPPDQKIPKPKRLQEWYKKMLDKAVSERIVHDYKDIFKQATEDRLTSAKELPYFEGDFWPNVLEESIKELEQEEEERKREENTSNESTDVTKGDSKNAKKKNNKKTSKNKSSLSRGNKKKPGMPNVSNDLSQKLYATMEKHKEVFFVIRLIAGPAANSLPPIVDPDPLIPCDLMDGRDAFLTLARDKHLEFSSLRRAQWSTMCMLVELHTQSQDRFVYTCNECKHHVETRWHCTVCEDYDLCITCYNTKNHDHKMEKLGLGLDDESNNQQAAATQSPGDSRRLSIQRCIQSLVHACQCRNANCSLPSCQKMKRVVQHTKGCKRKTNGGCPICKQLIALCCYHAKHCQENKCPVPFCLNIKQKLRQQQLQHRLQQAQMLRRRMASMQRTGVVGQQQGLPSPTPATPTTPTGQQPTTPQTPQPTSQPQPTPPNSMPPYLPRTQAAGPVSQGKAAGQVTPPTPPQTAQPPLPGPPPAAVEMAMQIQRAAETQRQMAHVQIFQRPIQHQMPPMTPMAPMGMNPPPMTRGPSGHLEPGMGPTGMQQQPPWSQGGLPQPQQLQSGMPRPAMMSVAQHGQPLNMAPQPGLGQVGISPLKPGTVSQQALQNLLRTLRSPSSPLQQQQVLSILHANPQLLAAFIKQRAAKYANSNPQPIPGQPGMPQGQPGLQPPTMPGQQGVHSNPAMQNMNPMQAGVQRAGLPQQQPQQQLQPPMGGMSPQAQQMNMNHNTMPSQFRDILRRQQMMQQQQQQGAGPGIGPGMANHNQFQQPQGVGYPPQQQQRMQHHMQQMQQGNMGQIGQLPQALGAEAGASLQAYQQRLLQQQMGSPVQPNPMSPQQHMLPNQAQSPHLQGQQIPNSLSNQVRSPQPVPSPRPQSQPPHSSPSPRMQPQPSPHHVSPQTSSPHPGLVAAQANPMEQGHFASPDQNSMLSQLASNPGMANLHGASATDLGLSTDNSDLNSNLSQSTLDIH
# Flag-p300-4 (domain corresponding to the gene sequence from 1069 to 2414 of p300): residues 1069-2414 of Q09472
# UniProt P13010: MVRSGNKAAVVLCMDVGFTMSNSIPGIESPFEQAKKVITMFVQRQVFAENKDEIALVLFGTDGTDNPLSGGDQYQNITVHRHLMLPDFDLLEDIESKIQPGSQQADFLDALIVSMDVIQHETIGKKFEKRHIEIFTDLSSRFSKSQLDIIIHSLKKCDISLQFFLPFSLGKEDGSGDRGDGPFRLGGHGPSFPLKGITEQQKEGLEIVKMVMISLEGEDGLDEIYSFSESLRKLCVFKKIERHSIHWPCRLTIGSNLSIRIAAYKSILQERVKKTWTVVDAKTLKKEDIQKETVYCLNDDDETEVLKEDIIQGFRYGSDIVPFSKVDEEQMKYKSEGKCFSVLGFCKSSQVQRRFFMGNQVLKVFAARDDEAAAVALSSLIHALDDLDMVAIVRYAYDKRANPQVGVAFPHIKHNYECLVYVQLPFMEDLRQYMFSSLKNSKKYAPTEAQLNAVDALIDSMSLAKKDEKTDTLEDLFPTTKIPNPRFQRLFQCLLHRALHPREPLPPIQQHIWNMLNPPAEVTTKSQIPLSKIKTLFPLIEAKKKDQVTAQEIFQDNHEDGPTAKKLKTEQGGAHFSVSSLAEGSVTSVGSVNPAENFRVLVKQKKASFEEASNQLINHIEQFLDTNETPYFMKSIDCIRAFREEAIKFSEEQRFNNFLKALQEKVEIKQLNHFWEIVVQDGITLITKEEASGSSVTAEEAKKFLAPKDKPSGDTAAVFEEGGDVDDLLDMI
# These are yes or no findings as the source states them, for the method shown. In cells and extracts the contact can be indirect. Some binding calls cover weakened binding; strength is not graded here.
# Columns and labels:
# [1] = molecular target: Flag-p300-4 (domain corresponding to the gene sequence from 1069 to 2414 of p300) (UniProt Q09472); assay: co-IP; LoVo cells transfected with flag-tagged p300 domain vectors for 48 hours; nuclear extracts immunoprecipitated with anti-flag tag antibody, blotted with an antibody against XRCC5
# [2] = molecular target: p300 (a transcription co-activator) (human (endogenous in RKO, LoVo and SW480)) (UniProt Q09472); assay: co-IP; nuclear extracts of RKO, LoVo and SW480 cells; rabbit anti-XRCC5 or anti-p300 antibody at 4°C overnight, protein A/G agarose beads, washed with ice-cold PBS; Western blot for the other protein; non immune rabbit IgG as control
# [3] = molecular target: X-ray repair cross-complementing protein 5 (XRCC5) (human (endogenous in RKO, LoVo and SW480)) (UniProt P13010); assay: as above
binding [1],binding [2],binding [3],Substance
binds,binds,–,X-ray repair cross-complementing protein 5 (XRCC5) (from UniProt P13010 1-732)
–,–,binds,p300 (a transcription co-activator) (from UniProt Q09472 1-2414)
